Experimental findings from US20250064934A1 (CENTURY THERAPEUTICS, published 2025) are described below.

The chains behind the UniProt entries cited, without tags or fusion partners. Where a name states a change or a piece, a line headed by the entry shows the natural chain unless it says otherwise. A line that says so, or that is headed by a name, gives the form on record, which may keep a tag or linker.
CD22Δ2-3 (P20273, form named): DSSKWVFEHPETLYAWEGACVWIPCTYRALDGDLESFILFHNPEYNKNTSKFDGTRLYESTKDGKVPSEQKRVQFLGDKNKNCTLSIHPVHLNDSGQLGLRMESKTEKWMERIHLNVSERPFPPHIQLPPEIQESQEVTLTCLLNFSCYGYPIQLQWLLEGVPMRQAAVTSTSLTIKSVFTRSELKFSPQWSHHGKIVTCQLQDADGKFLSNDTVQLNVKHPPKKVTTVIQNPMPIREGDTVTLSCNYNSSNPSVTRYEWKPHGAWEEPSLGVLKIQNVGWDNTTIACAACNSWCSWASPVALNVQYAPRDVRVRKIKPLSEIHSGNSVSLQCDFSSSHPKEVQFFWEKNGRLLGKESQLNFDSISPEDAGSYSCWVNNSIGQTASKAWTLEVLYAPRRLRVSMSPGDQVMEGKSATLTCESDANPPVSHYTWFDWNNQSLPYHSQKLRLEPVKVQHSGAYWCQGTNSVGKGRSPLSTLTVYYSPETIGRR

Assay [1] addresses CD22Δ2-3 (UniProt P20273). The assay is described as follows: BLI (ForteBio Octet), VHH-Fc captured on anti-human IgG Fc biosensor tips. Background: Biolayer interferometry detects binding as a change in optical thickness at a sensor tip.
Assay [2] concerns the target CD22Δ2-3 (UniProt P20273). Nature of the assay: binding to full length CD22 and deletion variants (legend of FIG. 2).

No constants are given. Whether binding was seen depends on the method and setting. Some binding calls cover weakened binding; strength is not graded here. Tags and fused reporters may be left off the sequences shown.

B1: PROT265 (D04) VHH-Fc fusion protein (Fc fusion)
chain: QVQLVESGGGLVQAGGSLRLSCAASGSEFTGYPMGWFRQAPGKEREFVAGSVGIGGSTNYADSVKGRFTISRDNAKNTVYLQMNSLKPEDTAVYYCAADKDYYKPYSRYRTVIRYETWGQGTQVTVSS
notes: also called CD22_D04; not shown: human IgG1 Fc domain
As to B1, the binding result in assay [1] and in assay [2] was “binds” in each case.

B2: PROT740 (E04) VHH-Fc fusion protein (Fc fusion)
chain: EVQLLESGGGLVQPGGSLRLSCAASGFTSSSYVMGWYRQAPGKEREFVSSISTGGDAYYADSVKGRFTISRDNSKNTLYLQMNSLRAEDTAVYYCAADVWYYHGGAYDYWGQGTQVTVSS
notes: VHH fused to the human IgG1 Fc domain; not shown: human IgG1 Fc domain
For the molecule B2, the binding entry in assay [1] and in assay [2] was “binds” in each case.
